Reference: the supplement of paper PMC7024190
Structures can show the parent of a compound that is named as a salt. This is one part of the list. Repeats in this data set agree poorly, so a single value says little.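 The cells were human embryonic kidney cells carrying a Renilla luciferase gene, driven by the HSV-TK promoter, on a plasmid put in briefly by transfection. This is the first-round screen of about ten thousand compounds, looking for ones that raise reporter output.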

The compounds below were run on HEK 293FT (assay: log relative Renilla luciferase luminescence (reporter expression vs reference, reference not stated) (log (base not stated)); higher = higher recombinant reporter expression). Conditions: 10 µM; time after transfection 48 h.
`CC(C)NCC(O)c1ccc(O)c(O)c1` (centres undefined) [Isoproterenol hydrochloride] showed a log of 0.033. Compound `Cc1ccc(/C=N/NC(=O)c2ccccc2Oc2ccccc2)o1` has a log of 0.0341. With `CC1(C)Oc2ccc(C#N)cc2[C@H](N2CCCC2=O)[C@H]1O` [Cromakalim] the log was 0.00743. With `CCN(CC)CC1CCN(c2ncc3ncnc(Nc4ccc(F)c(Cl)c4)c3n2)CC1` [BIBU 1361 dihydrochloride] the log was 0.0159. Work on `CCCCCCCCc1ccc(-c2ccc(C(=O)O)cc2)cc1` yielded a log of -0.0154. For `CCCC[P+](CCCC)(CCCC)Cc1ccc(NC(=O)C(Cc2ccc3ccccc3c2)NC(=NC2CCCCC2)NC2CCCCC2)cc1` (centres undefined), the log was -0.00108. `N=C(N)S/C=C\C(=O)O` [ZAPA sulphate] gave a log of -0.168. Compound `O=C(O)COCCN1CCN(C(c2ccccc2)c2ccc(Cl)cc2)CC1` (centres undefined) [Cetirizine dihydrochloride] has a log of -0.146. With `O=C(Nc1ccc([N+](=O)[O-])cc1O)Nc1ccccc1Br` the log was -0.0307. In the case of `CC(=O)N(OCc1ccccc1)[C@H]1c2cc(C#N)ccc2OC(C)(C)[C@H]1O`, the log is reported as 0.0562. For `O=C(c1ccc(F)cc1)C1CCN(CCn2c(=S)[nH]c3ccccc3c2=O)CC1` [Altanserin hydrochloride], the log was 0.0787. Work on `Nc1nccc(-c2ccc3noc(-c4ccc(Cl)cc4)c3c2)n1` [PIM 1 Inhibitor 2] yielded a log of 0.0106. With `CNC(=O)[C@@H](Cc1ccccc1)N(C)C(=O)[C@@H](Cc1ccc2ccccc2c1)N(C)C(=O)/C=C/CC(C)(C)N` [Tabimorelin] the log was -0.0382. Work on `CN1CCC[C@@H]1CCO[C@](C)(c1ccccc1)c1ccc(Cl)cc1` [Clemastine fumarate] yielded a log of 0.0767. Compound `Cc1c(CC(C)(C)C(=O)O)n(Cc2ccc(Cl)cc2)c2ccc(F)cc12` has a log of 0.0384. Work on `Cc1c(C(=O)N(C)C2CCCCC2)sc2nc3ccc(N)cc3n12` yielded a log of 0.0175. With `CCCCCCCCCCCCCCCC(=O)O[C@H](CC(=O)O)C[N+](C)(C)C` (racemic) [(±)-Palmitoylcarnitine chloride] the log was 0.0984. Work on `C1CCC2(CC1)CCNCC2` [4,4-Pentamethylenepiperidine hydrochloride] yielded a log of -0.0696. For `CN(C)C(=O)C(=O)c1cn(C)c2cc(Cl)c(C(=O)N3CCC(Cc4ccc(F)cc4)CC3)cc12`, the log was -0.271. `C/C=C1\C(=O)C[C@H]2[C@@H]3CCC4=CC(=O)CC[C@]4(C)[C@H]3CC[C@]12C` [Guggulsterone] showed a log of -0.116. In the case of `CN(CCOc1ccc(-c2ccc3c(c2)OCO3)cc1C(C)(C)C)CC(=O)O`, the log is reported as 0.0162. In the case of `Oc1ccc(-c2nc3cc(O)cc(Br)c3o2)cc1`, the log is reported as -0.00721. `CC(C)(C)NC[C@H](O)COc1nsnc1N1CCOCC1` [(S)-Timolol maleate] was tested, and the log was -0.00216. Compound `CC#CCOC(=O)c1c(C)nc2sc3c(c2c1N)CCC(O)C3` (centres undefined) has a log of -0.000277. Compound `CCC(C)N(C)C(=O)c1cc2ccccc2c(-c2ccccc2Cl)n1` (centres undefined) has a log of 0.0674. In the case of `N[C@@H](CSS(=O)(=O)O)C(=O)O` [S-Sulfo-L-cysteine sodium salt], the log is reported as -0.0903. In the case of `c1cc2c(cc1C1CCCCC1)c1c3n2CCNC3CCC1` (centres undefined) [Tetrindole mesylate], the log is reported as -0.0709. Work on `Cc1cc(/C(=C/Nc2ccc(Cl)cc2)C(=O)Nc2ccc(Cl)cc2)on1` yielded a log of -0.162. Work on `Nc1ccc(-c2cccc3c(=O)cc(N4CCOCC4)oc23)cc1` yielded a log of -4.81e-05. With `CC1(C)CCC(C)(C)c2cc(C3(c4ccc(C(=O)O)cc4)OCCO3)ccc21` the log was -0.527. `CC[C@]1(O)C[C@@H]2CN(CCc3c([nH]c4ccccc34)[C@@](C(=O)OC)(c3cc4c(cc3OC)N(C)[C@H]3[C@@](O)(C(=O)OC)[C@H](OC(C)=O)[C@]5(CC)C=CCN6CC[C@]43[C@@H]65)C2)C1` [Vinblastine sulfate] gave a log of 0.00106. In the case of `c1ccc2nc(C3=NCCN3)cnc2c1` [BU 239 hydrochloride], the log is reported as 0.0458. In the case of `COc1ccc(Nc2nccc(NCCO)n2)cc1` [Cardiogenol C hydrochloride], the log is reported as -0.0475. `COC(=O)C1=C(C)NC(C)=C(C(=O)NCCCN2CCC(c3ccccc3)(c3ccccc3)CC2)C1c1ccc([N+](=O)[O-])cc1` (centres undefined) gave a log of 0.0159. For `Cc1noc(NS(=O)(=O)c2ccc(N)cc2)c1C` [Sulfisoxazole], the log was 0.0209. Compound `Cc1nn(-c2ccccc2)c(C)c1C=NN1CCN(Cc2ccccc2)CC1` has a log of 0.0728. `C=CC(=O)c1ccc2ccccc2c1` gave a log of -0.0131. For `COc1ccc2c(c1)c(CC(=O)N1CCOCC1)c(C)n2C(=O)c1ccc(Cl)cc1`, the log was 0.0448. `CN(C)CCCN1c2ccccc2CCc2ccc(Cl)cc21` [Clomipramine hydrochloride] gave a log of -0.0323.
